The inconclusive results got no clear call from the source; some entries with a clear call stand among them for comparison. Potencies of inconclusive entries are doubtful fits and often do not repeat. The source made the active and inactive calls. The call rests on the fitted dose curve; in most records, active means well fitted inhibition curve with a large enough effect; inconclusive means small, poorly fitted or top-dose-only effect; inactive means flat fitted curve, though single readings scatter.
These compounds were tested against Luciferin 4-monooxygenase (Photinus pyralis) (UniProt P08659) (assay: qHTS Assay for Inhibitors of Firefly Luciferase from the GSK Published Protein Kinase Inhibitor Set). Details: purified firefly luciferase, luminescence inhibition; series mostly up to 57.5 µM; activity change, negative = inhibition: at the top concentration.
Description: FLuc (firefly luciferase) is the prototypical bioluminescent reporter gene from Photinus pyralis.[1] The enzyme catalyzes the oxidation luciferin via luciferin-AMP to produce light. FLuc is used in cell-based reporter gene-based assays for screening small molecule chemical libraries. However, small molecule luciferase inhibitors present in most large chemical libraries are often enriched in the output of high throughput screens using this reporter sometimes complicating interpretation and candidate selection.
RLuc is a bioluminescent reporter gene luciferase from Renilla reniformis, also known as the sea pansy. RLuc uses the luciferin substrate coelenterazine. RLuc is often used in combination with the nonhomologous luciferase FLuc (firefly luciferease) as a trasfection or pathway normalization control. Recently, non-homologous reporters have been described for high throughput screening 'coincidence' reporter gene strategies.
1. Fan F, Wood KV (2007) Bioluminescent assays for high-throughput screening. Assay Drug Dev Technol 5: 127-136.
2. Thorne N, Inglese J, Auld DS (2010) Illuminating insights into firefly luciferase and other bioluminescent reporters used in chemical biology. Chem Biol 17: 646-657.
3. […] Chem Biol 19: 1060-1072.
4. Michelini E, Cevenini L, Mezzanotte L, Coppa A, Roda A (2010) Cell-based assays: fuelling drug discovery. Anal Bioanal Chem 398: 227-238.
5. Cheng KC, Inglese J (2012) A coincidence reporter-gene system for high-throughput screening. Nat Methods 9: 937.
Biochemical firefly luciferase enzyme assay
NCGC Assay Protocol Summary:
Reagents: 50mM Tris acetate, pH 7.5; 10mM Mg acetate; 10uM D-luciferin (Sigma #L9504); 10uM ATP; 0.01% Tween-20; 0.05% BSA; 10nM P. pyralis luciferase (Sigma #L9506)
Control compounds used were two known firefly luciferase inhibitors (compounds (2) and (5) in Auld et al., 2010), and DMSO.
Three microliters containing firefly luciferase substrates in buffer (final concentrations: 50mM Tris acetate, pH 7.5, 10mM Mg acetate, 0.01% Tween-20, 0.05% BSA, 10uM D-luciferin, and 10uM ATP) are dispensed into each well of a Greiner white, solid-bottom 1536-well format plate using a flying reagent dispenser (FRD). These assay plates were then treated with 23nL of compound or DMSO using a Kalypsys pin tool, which allows for delivery of a 7-point interplate titration of each compound to the assay plates (quantitative HTS), with final compound concentrations ranging from approximately 60uM to 300pM. One microliter of firefly luciferase in 50mM Tris-acetate buffer was then delivered by FRD to each well for a final enzyme concentration of 10nM. Luciferase activity was then measured using an Envision plate reader (PerkinElmer), with an average incubation time of 5 min.
On the % scale 0 is the no-effect control and ±100 the full control effect; potency means the concentration at half of the fitted maximal effect.

Amino acid sequences for entries named in this document (tags omitted).
UniProt P08659, whole entry, looked up: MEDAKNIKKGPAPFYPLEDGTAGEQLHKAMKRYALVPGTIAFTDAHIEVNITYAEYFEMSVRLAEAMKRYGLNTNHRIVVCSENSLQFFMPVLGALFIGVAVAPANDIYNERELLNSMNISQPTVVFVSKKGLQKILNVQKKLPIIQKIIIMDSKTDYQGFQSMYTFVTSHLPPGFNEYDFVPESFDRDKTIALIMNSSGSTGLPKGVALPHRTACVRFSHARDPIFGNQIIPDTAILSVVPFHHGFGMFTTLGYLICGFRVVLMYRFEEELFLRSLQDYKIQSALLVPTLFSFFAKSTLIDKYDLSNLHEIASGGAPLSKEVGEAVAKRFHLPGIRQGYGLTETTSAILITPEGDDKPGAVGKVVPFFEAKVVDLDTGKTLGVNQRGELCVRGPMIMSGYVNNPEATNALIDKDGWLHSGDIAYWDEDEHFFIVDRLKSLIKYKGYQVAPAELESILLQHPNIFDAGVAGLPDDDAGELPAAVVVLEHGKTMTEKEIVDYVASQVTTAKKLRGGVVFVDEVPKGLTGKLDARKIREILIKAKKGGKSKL

SMILES	Potency	activity change, negative = inhibition
NS(=O)(=O)c1cccc(Nc2cc(-c3ccc(F)cc3)[nH]n2)c1	active: 11.6 µM	
O=C1NC(=O)C(c2cccc(Cl)c2)=C1Nc1ccc(O)c(Cl)c1		inactive: -4.63%
Nc1ncnc2occ(-c3ccc(NC(=O)Nc4cc(C(F)(F)F)ccc4F)cc3)c12	inactive	
NS(=O)(=O)c1ccc(Nc2cc(-c3cccc(O)c3)[nH]n2)cc1	inconclusive: 20.6 µM [inhibitor, partial curve]	
O=C(Nc1n[nH]c2nnc(-c3cccnc3)cc12)C1CC1		inactive: 6.05%
O=S(=O)(CCOCc1ccc(-c2ccc3ncnc(Nc4ccc(OCc5cccc(F)c5)c(Cl)c4)c3c2)o1)c1ccccc1		inactive: 6.47%
COc1ccc2ncn(-c3cc(OC(C)c4ccccc4C(F)(F)F)c(C(N)=O)s3)c2c1 (stereo not given)		inactive: 13.7%
Cc1ccc(NC(=O)c2ccoc2)cc1-c1ccc(C(=O)NCC2CC2)cc1	inconclusive: 41.1 µM [inhibitor, partial curve, poor fit]	
CCOc1ccc2c(-c3ccnc(Nc4cccc(C(F)(F)F)c4)n3)cnn2n1		inactive: 11.5%
CCn1c(-c2nonc2N)nc2ccc(F)cc21		inactive: 12.3%
NC(=O)c1cccc(Nc2nccc(Nc3cccc4[nH]ncc34)n2)c1	active: 13 µM	
COC(=O)Nc1nc2ccc(Oc3ccc(NC(=O)Nc4cc(C(F)(F)F)ccc4F)cc3)cc2s1	inconclusive: 13 µM [inhibitor, partial curve]	
c1ccc(COc2ccc(Nc3ncnc4ccc(-c5ccco5)cc34)cc2)cc1	inconclusive: 29.1 µM [inhibitor, partial curve, poor fit]	
NS(=O)(=O)c1cccc(-c2ccc3c(NC(=O)C4CC4)n[nH]c3c2)c1	inconclusive: 20.6 µM [inhibitor, partial curve, poor fit]	
Cc1ccc(-c2cc3c(NC(=O)C4CC4)ncnc3o2)cc1	inconclusive: 18.3 µM [inhibitor, partial curve, poor fit]	
Cc1c2ccc(N(C)c3ccnc(Nc4cccc(S(N)(=O)=O)c4)n3)cc2nn1C	active: 13 µM	
COc1ccc(-c2ccncc2)cc1C(N)=O		inactive: 6.06%
CS(=O)(=O)Nc1ccc(-c2ccc3c(NC(=O)C4CC4)n[nH]c3c2)cc1	inconclusive: 20.6 µM [inhibitor, partial curve]	
Cc1cccc(Nc2ncc(-c3ccccc3)o2)c1	active: 0.58 µM	
CCCN(CCS(C)(=O)=O)Cc1ccc(-c2ccc3ncnc(Nc4ccc(OCc5cccc(F)c5)c(Cl)c4)c3c2)o1	inconclusive: 20.6 µM [inhibitor, partial curve]	

A second format for 3 compounds above.
SMILES,Potency,"activity change, negative = inhibition"
Nc1ncnc2occ(-c3ccc(NC(=O)Nc4cc(C(F)(F)F)ccc4F)cc3)c12,inactive,
NS(=O)(=O)c1ccc(Nc2cc(-c3cccc(O)c3)[nH]n2)cc1,"inconclusive: 20.6 µM [inhibitor, partial curve]",
O=C(Nc1n[nH]c2nnc(-c3cccnc3)cc12)C1CC1,,inactive: 6.05%

(more compounds)

SMILES	Potency	activity change, negative = inhibition
c1cc(-c2cnn3nc(N4CCOCC4)ccc23)nc(NC2CC2)n1	active: 4.61 µM	
NS(=O)(=O)c1ccc(N=Nc2c(O)[nH]c3ccc(Cl)cc23)cc1	inconclusive: 41.1 µM [inhibitor, single point]	
N#Cc1c(NC(=O)c2cccc3ccccc23)sc2c1CCCC2	inconclusive: 18.3 µM [inhibitor, partial curve]	
CCOc1ccc2c(-c3ccnc(Nc4cc(OC)cc(C(F)(F)F)c4)n3)cnn2n1	inconclusive: 14.6 µM [inhibitor, partial curve]	
Nc1nc(-c2ccc3c(c2)C(=Cc2cc(Br)c(O)c(Br)c2)C(=O)N3)cs1	inconclusive: 29.1 µM [inhibitor, partial curve]	
Nc1nc(-c2ccccn2)c(-c2ccc3ncccc3n2)s1	active: 32.6 µM	
COc1cc2ncn(-c3cc(OCc4ccccc4C(F)(F)F)c(C(N)=O)s3)c2cc1OC		inactive: -6.98%
Cc1ccc(C(=O)NC2CC2)cc1-c1ccc2[nH]ncc2c1	inconclusive: 18.3 µM [inhibitor, partial curve]	
CC(Oc1cc(-n2cnc3ccc(OCC(O)CO)cc32)sc1C(N)=O)c1ccccc1Cl (stereo not given)		inactive: 6.05%
COC(=O)Nc1nc2ccc(Oc3ccc(NC(=O)Nc4cccc(C(=O)O)c4)cc3)cc2[nH]1	active: 0.116 µM	
CCCNc1cccc(-n2ncc3c(NN=Cc4ccncc4)ncnc32)c1		inactive: -12.7%
NC(=O)c1cc(-c2ccc(F)cc2)cc(-c2ccncc2)c1N		inactive: 0.778%
CCC(=O)Nc1ccc(C)c(-c2ccc(C(=O)NCC3CC3)cc2)c1	inconclusive: 18.3 µM [inhibitor, partial curve]	
Cc1ccc(O)cc1Nc1ccnc2cc(-c3ccccn3)ccc12	inconclusive: 20.6 µM [inhibitor, partial curve]	
COc1cccc(-n2nc(C)c3c(NN=C(C)c4ccncc4)ncnc32)c1		inactive: -0.792%
N#Cc1ccc2c(-c3ccnc(NC4CC4)n3)c(-c3ccc(F)cc3)nn2c1	inconclusive: 46.1 µM [inhibitor, partial curve, poor fit]	
CS(=O)(=O)CCNCc1ccc(-c2ccc3ncnc(Nc4ccc(OCc5ccccc5)c(Cl)c4)c3c2)o1	inconclusive: 20.6 µM [inhibitor, partial curve, poor fit]	
CS(=O)(=O)CCNCc1coc(-c2ccc3ncnc(Nc4ccc(OCc5ccccc5)cc4)c3c2)c1	inconclusive: 13 µM [inhibitor, partial curve]	
Nc1nc(-c2cccc(Cl)c2)c(-c2ccc3ncccc3n2)s1		inactive: 2.24%
CN(C)CCNC(=O)Nc1ccc(N(C)c2ccnc(Nc3ccc(CS(C)(=O)=O)cc3)n2)cc1	inconclusive: 29.1 µM [inhibitor, partial curve]	
